For this experiment, the target named is T1, GFP-tagged human EAAT3 (human) (UniProt P43005).
T1 sequence: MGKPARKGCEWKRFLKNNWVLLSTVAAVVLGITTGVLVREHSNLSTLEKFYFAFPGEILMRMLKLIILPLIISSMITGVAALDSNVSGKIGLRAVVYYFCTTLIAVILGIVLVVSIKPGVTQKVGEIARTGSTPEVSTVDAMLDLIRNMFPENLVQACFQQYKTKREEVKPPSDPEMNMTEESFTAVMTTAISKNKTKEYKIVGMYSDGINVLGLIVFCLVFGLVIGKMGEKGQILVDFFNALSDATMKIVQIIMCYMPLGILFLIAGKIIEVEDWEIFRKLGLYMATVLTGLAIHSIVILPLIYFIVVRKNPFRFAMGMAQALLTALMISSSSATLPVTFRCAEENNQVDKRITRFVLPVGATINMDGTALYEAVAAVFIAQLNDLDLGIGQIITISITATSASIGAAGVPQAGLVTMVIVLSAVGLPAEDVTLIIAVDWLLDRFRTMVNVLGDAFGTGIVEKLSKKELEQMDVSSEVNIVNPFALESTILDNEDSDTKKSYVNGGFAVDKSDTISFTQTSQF
The experiment can be described thus: affinity purification with mass spectrometry; GFP-hEAAT3 or mGFP from HEK293 held on GFP-Trap beads, washed, incubated with 1% CHAPS-solubilized rat brain lysate (8.65 mg) overnight at 4°C; six washes; SDS-PAGE, in-gel digestion, LC-MS/MS; only the target purified.

Sequences of proteins named here, by UniProt entry; tags and fusion partners are left off.
UniProt Q62848: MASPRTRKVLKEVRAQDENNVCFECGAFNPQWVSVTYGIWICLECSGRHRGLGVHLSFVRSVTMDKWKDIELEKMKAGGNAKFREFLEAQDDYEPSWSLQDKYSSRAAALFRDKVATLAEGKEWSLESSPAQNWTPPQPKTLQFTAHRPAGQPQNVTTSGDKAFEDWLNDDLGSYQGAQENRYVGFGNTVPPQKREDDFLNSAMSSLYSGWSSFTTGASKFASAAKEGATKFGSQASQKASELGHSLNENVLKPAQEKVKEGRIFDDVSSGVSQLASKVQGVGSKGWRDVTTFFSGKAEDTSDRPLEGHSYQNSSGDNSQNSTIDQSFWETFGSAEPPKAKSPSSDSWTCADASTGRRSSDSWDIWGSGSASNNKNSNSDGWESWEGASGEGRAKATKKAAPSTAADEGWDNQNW
UniProt P62332: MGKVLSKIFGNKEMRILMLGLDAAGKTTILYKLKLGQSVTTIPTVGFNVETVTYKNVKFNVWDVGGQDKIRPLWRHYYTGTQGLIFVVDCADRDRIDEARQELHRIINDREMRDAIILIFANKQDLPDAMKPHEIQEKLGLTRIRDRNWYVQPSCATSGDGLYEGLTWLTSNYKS

No constants are given. Whether binding was seen depends on the method and setting. In cells and extracts the contact can be indirect. A yes stands for co-enrichment or nearness to the bait. Other partners may have been found. Where a sequence is shown, tags or fusion partners need not be part of it.

In the case of “ADP-ribosylation factor GTPase-activating protein 1 (rat) (from UniProt Q62848 1-415)”, the binding entry is on record as “binds”.
With “ADP-ribosylation factor 6 (rat) (from UniProt P62332 1-175)” the entry was “binds”.

These data come from PMC8141794.
